Measurements as given in patent US8778643B2, “Methods for increasing lipid levels and producing triacylglycerols in algae” (priority 2012, dated 2014).
Some results were stated once for a whole list of compounds, not compound by compound. Some compounds share one range, which may span the group rather than tell each member.

Tested on: microalgae
Experiment: Microplate assay (growth, Nile Red lipids), algae strain not stated
Conditions: microplate screening, strain not given

NS(=O)(=O)c1ccc(N/N=C2\C(=O)Nc3ccc(Br)cc32)cc1 [CDK2 I2]
increase in (intracellular) lipid levels, Nile Red: 200-400%

O=C(O[C@@H]1Cc2c(O)cc(O)cc2O[C@@H]1c1cc(O)c(O)c(O)c1)c1cc(O)c(O)c(O)c1 [EGCG, [(2R,3R)-5,7-dihydroxy-2-(3,4,5-trihydroxy-phenyl)-3,4-dihydro-2H-chromen-3-yl] 3,4,5-trihydroxybenzoate]
increase in (intracellular) lipid levels, Nile Red (listed as epigallocatechin gallate): 200-400%
